Source: article PMC5481773, “Structural insights into the function of ZRANB3 in replication stress response” (Nature Communications, 2017)
The exact form of at least one protein or probe is not confirmed. At least one verdict was read from the data and is not stated in words by the source. Tags and fusion partners may be left off the protein sequences shown.

Target: T1, ZRANB3 HNH domain WT (human) (UniProt Q5FWF4)
T1 sequence (looked up): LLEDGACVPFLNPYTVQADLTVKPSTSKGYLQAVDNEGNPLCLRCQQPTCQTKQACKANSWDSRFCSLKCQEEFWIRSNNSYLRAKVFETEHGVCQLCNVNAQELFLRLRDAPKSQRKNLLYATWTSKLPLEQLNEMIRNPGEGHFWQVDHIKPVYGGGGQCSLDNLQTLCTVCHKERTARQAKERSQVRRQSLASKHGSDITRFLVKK
Assay: EMSA
Conditions: 4 mM EDTA, 4-32 uM protein, EMSA: 50 mM Tris-HCl pH 7.5, 5% glycerol, 1 mM DTT, 0.1 mg/ml BSA, 1 nM DNA, 4 C, 30 min, 5% native PAGE in 0.5x TBE, recombinant protein, residues 871-1079, protein details: N-terminal His6-Trx (pNH-TrxT), label: 5' 32P on strand 1 (S7)

“CCTCGATCCTACCAACCAGATGACGCGCTGCTACGTGCTACCGGAAGTCG / CGACTTCCGGTAGCACGTAGCAGCGGCTCGCCACGAACTGCACTCTAGGC [EMSA splayed duplex]”: binds.
